These results are taken from paper doi:10.1101/2020.11.17.386581.

By UniProt entry, the sequences of proteins in these tests, tags left out. Residues count along the entry.
UniProt Q07954, residues 20-4544: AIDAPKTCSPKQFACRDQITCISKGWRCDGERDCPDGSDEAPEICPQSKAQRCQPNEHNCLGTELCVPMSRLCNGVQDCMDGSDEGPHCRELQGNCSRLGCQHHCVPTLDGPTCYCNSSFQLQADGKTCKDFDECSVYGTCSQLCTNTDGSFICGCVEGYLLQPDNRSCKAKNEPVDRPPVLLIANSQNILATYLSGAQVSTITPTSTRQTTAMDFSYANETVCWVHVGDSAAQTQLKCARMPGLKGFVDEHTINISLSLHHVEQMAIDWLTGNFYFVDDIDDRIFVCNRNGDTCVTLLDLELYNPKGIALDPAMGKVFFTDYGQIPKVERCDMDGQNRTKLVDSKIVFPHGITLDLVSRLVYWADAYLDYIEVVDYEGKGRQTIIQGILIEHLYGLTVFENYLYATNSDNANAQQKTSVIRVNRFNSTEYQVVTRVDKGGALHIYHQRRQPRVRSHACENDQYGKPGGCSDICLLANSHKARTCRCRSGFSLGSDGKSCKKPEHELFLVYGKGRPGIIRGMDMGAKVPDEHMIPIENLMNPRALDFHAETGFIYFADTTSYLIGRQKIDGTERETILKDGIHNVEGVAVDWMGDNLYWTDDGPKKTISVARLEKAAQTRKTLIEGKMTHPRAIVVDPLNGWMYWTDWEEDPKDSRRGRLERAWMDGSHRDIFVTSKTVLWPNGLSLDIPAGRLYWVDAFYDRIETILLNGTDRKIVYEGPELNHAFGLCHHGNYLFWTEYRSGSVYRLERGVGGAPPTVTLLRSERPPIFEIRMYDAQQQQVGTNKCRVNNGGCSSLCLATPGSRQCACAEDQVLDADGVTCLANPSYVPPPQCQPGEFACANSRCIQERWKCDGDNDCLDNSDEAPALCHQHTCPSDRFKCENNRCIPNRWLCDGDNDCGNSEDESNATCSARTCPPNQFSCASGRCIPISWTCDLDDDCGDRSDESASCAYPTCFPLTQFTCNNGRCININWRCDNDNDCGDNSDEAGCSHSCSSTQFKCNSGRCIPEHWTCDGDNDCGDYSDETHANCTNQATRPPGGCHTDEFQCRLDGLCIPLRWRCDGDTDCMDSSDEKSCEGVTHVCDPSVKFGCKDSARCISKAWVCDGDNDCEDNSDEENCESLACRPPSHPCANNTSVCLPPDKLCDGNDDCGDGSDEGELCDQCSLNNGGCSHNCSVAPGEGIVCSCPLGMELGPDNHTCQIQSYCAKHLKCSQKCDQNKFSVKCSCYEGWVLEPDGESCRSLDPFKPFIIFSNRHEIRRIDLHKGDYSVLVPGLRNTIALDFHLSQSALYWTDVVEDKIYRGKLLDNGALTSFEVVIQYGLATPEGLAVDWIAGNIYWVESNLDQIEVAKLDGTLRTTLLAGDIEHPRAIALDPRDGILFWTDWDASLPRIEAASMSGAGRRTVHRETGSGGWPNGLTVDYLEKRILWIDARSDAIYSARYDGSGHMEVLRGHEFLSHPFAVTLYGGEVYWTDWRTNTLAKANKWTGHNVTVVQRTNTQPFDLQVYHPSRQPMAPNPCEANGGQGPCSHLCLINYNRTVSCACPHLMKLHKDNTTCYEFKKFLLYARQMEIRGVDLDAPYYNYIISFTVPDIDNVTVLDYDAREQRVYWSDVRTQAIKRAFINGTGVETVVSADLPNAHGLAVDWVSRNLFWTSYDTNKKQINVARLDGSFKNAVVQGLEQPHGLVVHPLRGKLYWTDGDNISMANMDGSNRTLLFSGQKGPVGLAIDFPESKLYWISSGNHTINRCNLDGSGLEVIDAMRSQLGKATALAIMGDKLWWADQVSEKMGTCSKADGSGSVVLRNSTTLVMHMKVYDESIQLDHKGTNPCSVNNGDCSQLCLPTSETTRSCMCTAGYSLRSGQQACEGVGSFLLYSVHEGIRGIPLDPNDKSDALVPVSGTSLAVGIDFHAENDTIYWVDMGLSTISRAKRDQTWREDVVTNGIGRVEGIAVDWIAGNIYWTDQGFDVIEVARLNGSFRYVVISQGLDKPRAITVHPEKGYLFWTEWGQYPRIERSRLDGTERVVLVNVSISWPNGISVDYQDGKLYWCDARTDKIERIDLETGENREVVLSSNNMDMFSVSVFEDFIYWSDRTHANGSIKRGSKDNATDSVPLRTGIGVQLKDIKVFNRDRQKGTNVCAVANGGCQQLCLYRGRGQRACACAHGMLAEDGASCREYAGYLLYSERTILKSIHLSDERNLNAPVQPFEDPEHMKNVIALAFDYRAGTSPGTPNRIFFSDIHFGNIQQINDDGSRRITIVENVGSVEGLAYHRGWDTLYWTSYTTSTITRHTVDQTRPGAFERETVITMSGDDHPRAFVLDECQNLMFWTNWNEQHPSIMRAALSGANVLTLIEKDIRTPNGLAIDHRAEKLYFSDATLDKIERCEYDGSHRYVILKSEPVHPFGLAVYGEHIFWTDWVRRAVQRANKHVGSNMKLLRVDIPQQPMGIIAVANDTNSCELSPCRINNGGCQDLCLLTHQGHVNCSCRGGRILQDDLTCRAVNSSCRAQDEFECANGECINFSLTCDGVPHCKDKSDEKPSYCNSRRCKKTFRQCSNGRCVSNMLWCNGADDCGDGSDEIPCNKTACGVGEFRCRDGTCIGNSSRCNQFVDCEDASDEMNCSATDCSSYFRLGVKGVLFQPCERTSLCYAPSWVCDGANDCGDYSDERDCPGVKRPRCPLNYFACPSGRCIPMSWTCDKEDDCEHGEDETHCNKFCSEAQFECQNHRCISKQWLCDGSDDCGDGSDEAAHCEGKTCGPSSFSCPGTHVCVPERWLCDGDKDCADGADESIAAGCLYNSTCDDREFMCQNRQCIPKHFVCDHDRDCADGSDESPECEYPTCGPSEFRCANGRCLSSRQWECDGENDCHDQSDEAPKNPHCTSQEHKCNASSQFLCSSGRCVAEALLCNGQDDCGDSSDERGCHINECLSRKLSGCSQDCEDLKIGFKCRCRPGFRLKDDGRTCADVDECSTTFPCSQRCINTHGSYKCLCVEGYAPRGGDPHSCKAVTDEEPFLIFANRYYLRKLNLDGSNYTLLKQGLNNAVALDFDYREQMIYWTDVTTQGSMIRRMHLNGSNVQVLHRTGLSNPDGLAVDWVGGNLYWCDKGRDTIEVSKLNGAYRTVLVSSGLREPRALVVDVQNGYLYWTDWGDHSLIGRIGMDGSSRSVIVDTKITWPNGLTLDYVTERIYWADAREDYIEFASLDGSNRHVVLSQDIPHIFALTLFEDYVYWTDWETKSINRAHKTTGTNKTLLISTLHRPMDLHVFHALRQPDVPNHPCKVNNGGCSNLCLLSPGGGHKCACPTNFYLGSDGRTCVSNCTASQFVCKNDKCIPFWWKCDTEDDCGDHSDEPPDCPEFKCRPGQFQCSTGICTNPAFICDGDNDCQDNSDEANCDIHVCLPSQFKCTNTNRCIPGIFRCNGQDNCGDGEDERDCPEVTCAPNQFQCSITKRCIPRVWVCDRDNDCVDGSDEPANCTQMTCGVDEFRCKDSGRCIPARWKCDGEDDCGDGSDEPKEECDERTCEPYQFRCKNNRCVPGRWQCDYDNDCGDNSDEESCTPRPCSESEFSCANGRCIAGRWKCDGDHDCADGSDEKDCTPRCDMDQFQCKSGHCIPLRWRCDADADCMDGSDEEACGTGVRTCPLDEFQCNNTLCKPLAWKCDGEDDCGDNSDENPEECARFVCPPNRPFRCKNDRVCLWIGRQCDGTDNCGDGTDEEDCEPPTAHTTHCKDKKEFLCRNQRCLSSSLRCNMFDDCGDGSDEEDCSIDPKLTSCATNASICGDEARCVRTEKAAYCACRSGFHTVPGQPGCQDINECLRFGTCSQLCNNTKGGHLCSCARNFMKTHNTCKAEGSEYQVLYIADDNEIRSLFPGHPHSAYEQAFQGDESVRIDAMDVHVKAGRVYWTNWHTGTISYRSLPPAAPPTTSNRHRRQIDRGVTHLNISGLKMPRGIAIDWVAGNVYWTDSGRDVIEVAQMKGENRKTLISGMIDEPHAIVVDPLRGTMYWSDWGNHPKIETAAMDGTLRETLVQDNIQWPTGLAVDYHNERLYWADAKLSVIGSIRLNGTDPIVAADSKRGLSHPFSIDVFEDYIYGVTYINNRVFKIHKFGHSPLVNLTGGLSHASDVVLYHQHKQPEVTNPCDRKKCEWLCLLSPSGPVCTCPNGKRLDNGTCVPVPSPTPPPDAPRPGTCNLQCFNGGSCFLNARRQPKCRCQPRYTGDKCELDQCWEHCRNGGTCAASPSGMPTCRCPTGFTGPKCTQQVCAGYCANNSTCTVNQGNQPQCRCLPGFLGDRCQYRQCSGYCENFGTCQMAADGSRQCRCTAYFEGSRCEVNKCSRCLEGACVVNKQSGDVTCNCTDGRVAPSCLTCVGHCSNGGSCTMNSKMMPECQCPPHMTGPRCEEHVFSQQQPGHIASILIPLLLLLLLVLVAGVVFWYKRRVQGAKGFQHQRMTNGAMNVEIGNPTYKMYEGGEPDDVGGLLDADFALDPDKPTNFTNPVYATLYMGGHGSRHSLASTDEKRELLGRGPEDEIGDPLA
UniProt P30533, residues 35-357: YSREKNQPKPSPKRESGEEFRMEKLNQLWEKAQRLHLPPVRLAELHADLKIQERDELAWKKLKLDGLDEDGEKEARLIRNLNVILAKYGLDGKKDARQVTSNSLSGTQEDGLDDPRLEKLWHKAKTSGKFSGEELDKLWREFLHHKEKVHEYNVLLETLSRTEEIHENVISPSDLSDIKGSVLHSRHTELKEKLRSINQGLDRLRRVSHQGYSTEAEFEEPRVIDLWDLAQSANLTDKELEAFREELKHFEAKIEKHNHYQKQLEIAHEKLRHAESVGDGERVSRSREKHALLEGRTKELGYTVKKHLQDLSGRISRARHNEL

No constants are given. Whether binding was seen depends on the method and setting. Some results given as binding are weak or reduced against the parent protein; the word gives no strength.

The target in experiment [1] is LRP1 of mouse embryonic fibroblasts (MEF) (mouse (endogenous in MEF)) (UniProt Q91ZX7). As to the kind of experiment: radioligand binding.
The target of experiment [2] is Full-length human LRP1 purified from placenta (human) (UniProt Q07954). As to the kind of experiment: SPR. On the technique in general: Surface plasmon resonance follows binding to a sensor surface in real time, without labels.

As to “Receptor associated protein (RAP) (from UniProt P30533 35-357)”, the binding result in experiment [1] and in experiment [2] was “binds” throughout.
